Reference: publication PMC6028455
Results are given in words; binding and its absence hold for the method and conditions named. In cells and extracts the contact can be indirect. Some results given as binding are weak or reduced against the parent protein; the word gives no strength.

Sequences of proteins named here, by UniProt entry; tags and fusion partners are left off.
UniProt Q64373: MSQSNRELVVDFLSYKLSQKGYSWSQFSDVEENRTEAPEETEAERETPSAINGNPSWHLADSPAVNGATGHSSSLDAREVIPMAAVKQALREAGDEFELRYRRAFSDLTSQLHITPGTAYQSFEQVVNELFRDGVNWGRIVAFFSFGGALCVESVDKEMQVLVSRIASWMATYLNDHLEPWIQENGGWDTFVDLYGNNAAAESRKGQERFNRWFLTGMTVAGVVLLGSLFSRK
UniProt P20152: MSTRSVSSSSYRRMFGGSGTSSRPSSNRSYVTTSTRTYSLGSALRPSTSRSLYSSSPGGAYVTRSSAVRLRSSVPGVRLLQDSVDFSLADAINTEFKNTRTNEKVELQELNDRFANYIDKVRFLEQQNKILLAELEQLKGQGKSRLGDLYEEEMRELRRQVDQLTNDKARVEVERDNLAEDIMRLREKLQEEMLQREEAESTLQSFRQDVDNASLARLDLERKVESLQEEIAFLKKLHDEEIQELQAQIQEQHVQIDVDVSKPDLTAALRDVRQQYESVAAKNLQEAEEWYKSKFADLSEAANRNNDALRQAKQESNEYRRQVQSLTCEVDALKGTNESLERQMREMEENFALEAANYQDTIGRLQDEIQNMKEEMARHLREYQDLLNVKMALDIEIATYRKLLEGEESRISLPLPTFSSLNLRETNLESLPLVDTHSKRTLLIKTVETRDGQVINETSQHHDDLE

B1: BAD(S26A) mutant ectopically expressed in Bad-/- fibroblasts (protein, UniProt Q61337 1-204)
chain: MGTPKQPSLAPAHALGLRKSDPGIRALGSDAGGRRWRPAAQSMFQIPEFEPSEQEDASATDRGLGPSLTEDQPGPYLAPGLLGSNIHQQGRAATNSHHGGAGAMETRSRHSSYPAGTEEDEGMEEELSPFRGRSRSAPPNLWAAQRYGRELRRMSDEFEGSFKGLPRPKSAGTATQMRQSAGWTRIIQSWWDRNLGKGGSTPSQ
B2: BAD, endogenous in WT fibroblasts (protein, UniProt Q61337 1-204)
chain: MGTPKQPSLAPAHALGLRKSDPGIRSLGSDAGGRRWRPAAQSMFQIPEFEPSEQEDASATDRGLGPSLTEDQPGPYLAPGLLGSNIHQQGRAATNSHHGGAGAMETRSRHSSYPAGTEEDEGMEEELSPFRGRSRSAPPNLWAAQRYGRELRRMSDEFEGSFKGLPRPKSAGTATQMRQSAGWTRIIQSWWDRNLGKGGSTPSQ
B3: BAD(S26D) mutant ectopically expressed in Bad-/- fibroblasts (protein, UniProt Q61337 1-204)
chain: MGTPKQPSLAPAHALGLRKSDPGIRDLGSDAGGRRWRPAAQSMFQIPEFEPSEQEDASATDRGLGPSLTEDQPGPYLAPGLLGSNIHQQGRAATNSHHGGAGAMETRSRHSSYPAGTEEDEGMEEELSPFRGRSRSAPPNLWAAQRYGRELRRMSDEFEGSFKGLPRPKSAGTATQMRQSAGWTRIIQSWWDRNLGKGGSTPSQ

How the values were obtained:
[1] = target: BCL-xL (mouse (endogenous in embryonic fibroblasts)) (UniProt Q64373); experiment: co-IP; immunoprecipitation with anti-14-3-3 or anti-BCL-xL antibody, immunoblotting for BAD; Bad-/- fibroblasts expressing WT BAD or BAD(S26D) treated with cytotoxic dose TNFα (80 ng/ml), or WT BAD or BAD(S26A) treated with non-cytotoxic dose TNFα (5 ng/ml), various durations
[2] = target: Vimentin, endogenous in WT fibroblasts (mouse (endogenous in embryonic fibroblasts)) (UniProt P20152); experiment: proximity ligation; Duolink in situ fluorescent detection reagents in WT fibroblasts, confocal imaging; resting cells and cells treated with cytotoxic dose TNFα

| Binder | binding [1] | binding [2] |
| --- | --- | --- |
| B1 | binds |  |
| B2 |  | no binding |
| B3 | no binding |  |
